Source: patent publication US4269717A, “Boiler additives for oxygen scavenging” (priority 1980, dated 1981)

What was measured:
[1] = initial O2 40 ppb; 227-239° F.
Method: A second more extensive group of potential oxygen scavengers were compared, again using a small laboratory boiler and oxygen saturated feed water containing sodium hydroxide. […] The hydrazine salts among this group are no less toxic than hydrazine and therefore were eliminated from further study. […] In addition, the carbohydrazide was preferred because it is a solid at room temperature and could therefore be used in dry formulations.
INITIAL SCREENING AT 227-239° F.

[2] = Residual hydrazine at commercial boiler site (FIG. 3); details: carbohydrazide to hydrazine ratio 1:2

Compound	Final N2 H4 [1]	Residual hydrazine levels vs straight hydrazine treatments ([2]; 300° F., 360° F. and 450° F. sample points)	Residual hydrazine levels, corrected for 79.9% purity ([2]; regardless of temperature)
NNC(=O)NN [Carbohydrazide, N, N' diaminourea]	33 ppb	lower than those for straight hydrazine treatments	approximately half those observed for hydrazine
O=CNNC=O [Diformohydrazide]	trace		
COC(=O)NNC(=O)OC [Dimethyldihydrazodicarboxylate]	trace		
O=C(O)NNC(=O)O [Disodiumdihydrazodicarboxylate]	241 ppb		
NNC=O [Formohydrazide]	30 ppb		
NN.O=S(=O)(O)O [Hydrazine sulfate, Hydrazinium sulfate, reference compound]	435 ppb		
NN [Hydrazine, hydrazine, reference compound]	398 ppb		
Di (methylformal)diazine	244 ppb		
